From patent US6582968B2 (Conselho Nacional de Desenvolvimento Cientifico e …, priority 1999, dated 2003)

Test: general procedure: Boc solid-phase peptide synthesis; diisopropylcarbodiimide; TBTU for recoupling
Details: whole synthesis

## Acetyl-Toac-Ser-Tyr-Ser-Met-Glu-His-Phe-Arg-Trp-Gly-Lys-Pro-Val-CONH2
  crude yield: 83%
